Publication PMC9041834
No constants are given. Whether binding was seen depends on the method and setting. Binding seen in cells or lysates may run through a third protein. Some entries that bind do so weakly or less than the wild type.

By UniProt entry, the sequences of proteins in these tests, tags left out.
UniProt Q18223: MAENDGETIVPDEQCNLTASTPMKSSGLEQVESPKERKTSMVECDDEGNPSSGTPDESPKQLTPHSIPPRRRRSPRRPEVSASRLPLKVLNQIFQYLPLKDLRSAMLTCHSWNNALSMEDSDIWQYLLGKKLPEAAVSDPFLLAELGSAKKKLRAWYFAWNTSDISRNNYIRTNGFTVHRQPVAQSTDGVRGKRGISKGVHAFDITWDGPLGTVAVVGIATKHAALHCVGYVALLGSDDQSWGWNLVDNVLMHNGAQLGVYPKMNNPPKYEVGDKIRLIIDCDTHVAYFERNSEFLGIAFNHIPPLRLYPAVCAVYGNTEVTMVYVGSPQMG
UniProt G5ECH7: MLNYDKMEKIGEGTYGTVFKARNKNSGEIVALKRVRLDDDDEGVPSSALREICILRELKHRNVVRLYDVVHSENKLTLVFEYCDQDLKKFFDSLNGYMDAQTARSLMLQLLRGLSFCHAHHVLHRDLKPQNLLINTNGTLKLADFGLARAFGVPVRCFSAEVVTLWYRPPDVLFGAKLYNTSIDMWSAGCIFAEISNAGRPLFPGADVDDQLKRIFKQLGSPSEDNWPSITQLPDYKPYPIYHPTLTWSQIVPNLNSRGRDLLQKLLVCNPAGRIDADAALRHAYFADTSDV

Molecular target: GFP::FSN-1 CRISPR (endogenous FSN-1 N-terminally fused with GFP) (C. elegans) (UniProt Q18223)
Experiment: co-IP; CRISPR-tagged endogenous proteins in whole animal lysates of C. elegans (wild-type background, and rpm-1 LD CRISPR background for the FSN-1 pair); 50 mM Tris HCl pH 7.5, 150 mM NaCl, 1.5 mM MgCl2, 10% glycerol, 0.1% NP-40, 1 mM DTT; anti-FLAG or anti-GFP, protein-G agarose 4 h at 4°C; immunoblot

With “CDK-5::3xFLAG CRISPR (endogenous CDK-5 C-terminally tagged with 3xFLAG) (from UniProt G5ECH7 1-292) (enzyme)” the binding was “binds”.
